This passage reports binding results from PMC3516490.

These are yes or no findings as the source states them, for the method shown. In cells and extracts the contact can be indirect. Tags and fused reporters may be left off the sequences shown.

For the assay, the target named is T1, Mps3-3xFLAG (S. cerevisiae) (UniProt P47069).
T1 sequence (chain, glycosylated (detected by Pro-Q Emerald stain)): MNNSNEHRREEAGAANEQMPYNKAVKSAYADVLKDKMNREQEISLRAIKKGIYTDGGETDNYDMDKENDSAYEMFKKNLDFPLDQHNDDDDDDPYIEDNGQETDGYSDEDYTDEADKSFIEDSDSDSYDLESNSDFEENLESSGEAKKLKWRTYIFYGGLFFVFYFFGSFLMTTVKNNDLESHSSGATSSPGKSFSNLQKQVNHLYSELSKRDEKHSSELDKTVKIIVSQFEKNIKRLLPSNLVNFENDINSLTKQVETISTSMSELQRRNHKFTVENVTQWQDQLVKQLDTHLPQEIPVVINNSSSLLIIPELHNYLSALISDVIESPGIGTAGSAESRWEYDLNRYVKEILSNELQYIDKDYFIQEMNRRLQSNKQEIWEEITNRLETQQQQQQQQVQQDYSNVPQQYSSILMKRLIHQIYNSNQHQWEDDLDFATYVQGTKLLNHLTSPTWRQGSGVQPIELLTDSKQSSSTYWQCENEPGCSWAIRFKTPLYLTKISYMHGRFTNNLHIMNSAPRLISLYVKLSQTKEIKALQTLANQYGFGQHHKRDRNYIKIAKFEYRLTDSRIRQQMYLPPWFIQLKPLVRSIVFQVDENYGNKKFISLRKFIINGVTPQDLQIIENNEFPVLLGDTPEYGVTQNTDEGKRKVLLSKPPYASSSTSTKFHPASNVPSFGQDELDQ
Kind of assay: co-IP; Mps3-3xFLAG immunoprecipitated from yeast lysate and tested for 3xHA-Emp65 (Figure S3B).

B1: 3xHA-Emp65 (protein, UniProt P40085 1-556)
chain: MQHKDTAVAKDTAKKRLLRRNSAPSAIHIISRLDKKWSFLWNTIDRHNIVEEQDESSAAKSEEEHEDDYELEQLLNMIRIPMFLEKFMLFALLTSLDCFLYYFTVLPIRLIKGYVKQFKSYRQHYRLQQRSGHKNKIPFRYRITSREYKERCMIFIIVISSILLSKLDTSKLYHRIKRQSTMKLYMLFSVLEMADKMLASLGQSLLTVMLSRKNSERILLHKCLLVSMSLTYVTIHGYVLVYQAISLNIAVNSYSNALLTLLLSMQFAEIKSSVLKKFDKEGFFQITIADVVERFKLTLLLSITGLRNLQSWSSSLSNTSINFWSPRSTLSIVINILCGPMVSVVGSEVLVDWAKHAYITKFNRIRPQIYDKFYYIIYKDYSTRTHKLEDRLGLPLPAFVVLFIVMVRPTLFKSSEPSYLPSLFRILFMGASVFLLALLAKFTLDLILIKWSKRIEQRFRDQAFNTVVTEEEYVPGLLSGGMGKVDVSTRIALHSDYNKENRIETESVSPMRKRKTTLTAECTPPSLNDIRRQKDSKNPRSLENVARYKMVSKRIW
Consider B1, for which the binding result is recorded as “no binding”.
